Reference: publication PMC9667586
Results are given in words; binding and its absence hold for the method and conditions named. In cells and extracts the contact can be indirect. Here binding means that the protein was enriched with, or labelled near, the bait; the list need not be complete.

Sequences of proteins named here, by UniProt entry; tags and fusion partners are left off.
UniProt Q16643: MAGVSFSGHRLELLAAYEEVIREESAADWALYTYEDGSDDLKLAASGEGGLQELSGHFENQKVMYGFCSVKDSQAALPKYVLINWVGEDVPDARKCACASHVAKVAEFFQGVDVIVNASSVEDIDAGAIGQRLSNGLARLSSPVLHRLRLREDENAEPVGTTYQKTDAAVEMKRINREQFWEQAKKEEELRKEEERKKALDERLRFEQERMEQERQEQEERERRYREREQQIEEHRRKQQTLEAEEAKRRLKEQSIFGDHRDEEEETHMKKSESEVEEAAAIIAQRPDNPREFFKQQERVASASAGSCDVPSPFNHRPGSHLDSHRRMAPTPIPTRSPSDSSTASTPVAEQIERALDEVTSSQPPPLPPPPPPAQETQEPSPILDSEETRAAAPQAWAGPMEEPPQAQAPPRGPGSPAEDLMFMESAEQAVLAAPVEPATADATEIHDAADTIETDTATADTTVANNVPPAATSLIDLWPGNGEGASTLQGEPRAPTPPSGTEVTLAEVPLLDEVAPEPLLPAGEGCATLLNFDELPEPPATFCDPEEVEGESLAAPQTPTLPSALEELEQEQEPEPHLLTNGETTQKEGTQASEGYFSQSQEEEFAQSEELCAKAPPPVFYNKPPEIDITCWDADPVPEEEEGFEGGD
UniProt Q16666: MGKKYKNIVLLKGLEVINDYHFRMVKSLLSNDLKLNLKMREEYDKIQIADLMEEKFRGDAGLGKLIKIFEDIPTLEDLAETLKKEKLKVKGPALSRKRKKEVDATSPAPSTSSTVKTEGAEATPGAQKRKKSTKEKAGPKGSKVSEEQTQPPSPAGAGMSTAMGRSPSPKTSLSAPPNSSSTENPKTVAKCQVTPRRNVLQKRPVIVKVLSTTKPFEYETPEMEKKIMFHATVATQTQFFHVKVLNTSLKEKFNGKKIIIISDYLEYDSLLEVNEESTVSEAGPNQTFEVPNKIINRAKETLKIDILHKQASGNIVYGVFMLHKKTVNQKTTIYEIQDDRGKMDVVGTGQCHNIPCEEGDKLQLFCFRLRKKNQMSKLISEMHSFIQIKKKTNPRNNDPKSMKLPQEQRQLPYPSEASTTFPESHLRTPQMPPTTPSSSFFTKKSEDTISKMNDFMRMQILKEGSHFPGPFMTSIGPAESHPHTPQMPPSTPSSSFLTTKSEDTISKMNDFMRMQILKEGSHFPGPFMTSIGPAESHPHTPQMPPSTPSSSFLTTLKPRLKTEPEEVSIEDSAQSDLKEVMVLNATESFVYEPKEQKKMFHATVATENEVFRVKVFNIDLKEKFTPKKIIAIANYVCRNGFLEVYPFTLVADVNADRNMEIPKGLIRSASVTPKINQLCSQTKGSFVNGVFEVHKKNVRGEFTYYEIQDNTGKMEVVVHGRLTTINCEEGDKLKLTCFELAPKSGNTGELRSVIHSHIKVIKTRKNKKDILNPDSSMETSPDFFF

Target: Actin related protein 2/3 complex, subunit 1B (human (endogenous in GSC 267 and GSC 20)) (UniProt O15143)
Assay: affinity purification with mass spectrometry; IP with ARPC1B antibody from GSC 267 cells, IgG control; SDS-PAGE, silver staining, mass spectrometry

binding	Substance
binds	CORO1C (from UniProt Q9ULV4 1-474)
binds	DBN1 (from UniProt Q16643 1-649)
binds	Human antigen R (from UniProt Q15717 1-326)
binds	γ-interferon inducible protein 16 (from UniProt Q16666 1-785)
